Assay results from US7495104B2, “Quinoline or quinazoline derivatives inhibiting auto-phosphorylation of fibroblast growth factor receptors” (Kirin Beer Kabushiki Kaisha, priority 2001, dated 2009).
pIC50: −log10 of the molar value. Structures were worked out from names or drawings and are uncertain.

Amino acid sequences for entries named in this document (tags omitted). Residues count along the entry.
UniProt P21802, 431-767 limits assumed: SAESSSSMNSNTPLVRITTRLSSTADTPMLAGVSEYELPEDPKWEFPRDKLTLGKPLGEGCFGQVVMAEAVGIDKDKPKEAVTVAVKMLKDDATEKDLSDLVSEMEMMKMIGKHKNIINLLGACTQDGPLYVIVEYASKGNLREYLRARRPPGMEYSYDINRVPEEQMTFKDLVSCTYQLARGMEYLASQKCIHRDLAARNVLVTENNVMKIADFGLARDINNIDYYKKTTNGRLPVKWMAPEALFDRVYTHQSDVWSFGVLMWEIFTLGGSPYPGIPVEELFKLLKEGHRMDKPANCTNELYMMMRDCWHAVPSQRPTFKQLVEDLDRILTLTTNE

Biological target: Bek (Homo sapiens, UniProt P21802)
Experiment: Inhibitory activity against Bek-autophosphorylation using ELISA method in OCUM-2MD3 cells
Conditions: read-out: IC50 (concentration necessary for inhibiting 50% of Bek-phosphorylation), 1 hr with compound

In the case of `COc1cc2c(Oc3ccc(NC(=O)NCCC(C)(C)C)c(Cl)c3)ccnc2cc1OCC1CCCN(C(=O)OC(C)(C)C)C1` (stereo not shown), the pIC50 was 7.08.
